Measured values reported in patent US20110077215A1, “DNA Methylation As A Target For Diagnosis And Treatment Of Chronic Lymphocytic Leukema (CLL)” (THE UNIVERSITY OF UTAH RESEARCH FOUNDATION, priority 2005, published 2011).
For at least one compound, name, drawing or mass did not settle the structure.

Assays:
[1] = system: global DNA methylation; assay: Global methylation analysis after continuous infusion Decitabine; assay type: in vivo, human; conditions: continuous intravenous infusion, patient DNA
Method: All patients were treated with continuous infusion Decitabine given intravenously in an inpatient setting. […] The method for assessing DNA methylation was consistent and reproducible (Samlowski et al. Manuscript submitted to JCO).

[2] = system: interferon inducible genes silenced by epigenetic alteration; assay: Microarray analysis of gene expression after decitabine

Nc1ncn([C@H]2C[C@H](O)[C@@H](CO)O2)c(=O)n1 [Decitabine, 5-aza-2-deoxycytidine]
Global DNA methylation after vs before treatment [1]: relative decrease in global DNA methylation | Gene expression by microarray analysis [2]: upregulate many interferon inducible genes silenced by epigenetic alteration
